According to article PMC7192513:
Results are given in words; binding and its absence hold for the method and conditions named. In cells and extracts the contact can be indirect. Here binding means that the protein was enriched with, or labelled near, the bait; the list need not be complete.

T1: Kelch protein K13 (P. falciparum (endogenous in Cam3.II and CamWT parasites)) (UniProt Q8IDQ2)
T1 sequence: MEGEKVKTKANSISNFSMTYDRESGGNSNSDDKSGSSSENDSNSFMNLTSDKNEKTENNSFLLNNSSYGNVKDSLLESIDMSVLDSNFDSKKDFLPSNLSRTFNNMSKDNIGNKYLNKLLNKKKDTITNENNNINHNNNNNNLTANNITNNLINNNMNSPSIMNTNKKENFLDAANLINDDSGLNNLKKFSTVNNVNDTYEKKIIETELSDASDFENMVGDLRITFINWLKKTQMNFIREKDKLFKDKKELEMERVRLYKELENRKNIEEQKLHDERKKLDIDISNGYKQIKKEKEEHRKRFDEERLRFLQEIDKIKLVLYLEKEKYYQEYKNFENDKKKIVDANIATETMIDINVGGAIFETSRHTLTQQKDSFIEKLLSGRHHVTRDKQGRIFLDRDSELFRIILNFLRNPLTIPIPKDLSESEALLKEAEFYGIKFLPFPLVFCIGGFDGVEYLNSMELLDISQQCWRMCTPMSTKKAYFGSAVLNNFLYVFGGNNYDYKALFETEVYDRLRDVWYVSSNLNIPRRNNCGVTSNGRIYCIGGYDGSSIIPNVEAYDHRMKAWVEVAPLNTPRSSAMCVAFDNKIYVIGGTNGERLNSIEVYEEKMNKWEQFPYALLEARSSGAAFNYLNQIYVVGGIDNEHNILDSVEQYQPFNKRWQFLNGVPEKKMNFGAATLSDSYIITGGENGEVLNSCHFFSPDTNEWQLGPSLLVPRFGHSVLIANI


Biological target: T1, Kelch protein K13 (P. falciparum (endogenous in Cam3.II and CamWT parasites))
Assay: affinity purification with mass spectrometry; co-IP with a mix of the K13 mAbs E3 and D9 (2.5 ug each) coupled to Pierce Direct IP columns; 500 ug parasite lysate in Pierce IP Lysis Buffer; cultures enriched in 0-12 hpi rings of Cam3.II (K13 WT, C580Y, R539T) and CamWT (WT, C580Y); eluates by LC-MS/MS; 6 experiments, 13 test samples, 10 negative controls

Binder | binding
Peptidyl-prolyl cis-trans isomerase FKBP35 (protein, UniProt Q8I4V8 1-304) MTTEQEFEKVELTADGGVIKTILKKGDEGEENIPKKGNEVTVHYVGKLESTGKVFDSSFDRNVPFKFHLEQGEVIKGWDICVSSMRKNEKCLVRIESMYGYGDEGCGESIPGNSVLLFEIELLSFREAKKSIYDYTDEEKVQSAFDIKEEGNEFFKKNEINEAIVKYKEALDFFIHTEEWDDQILLDKKKNIEISCNLNLATCYNKNKDYPKAIDHASKVLKIDKNNVKALYKLGVANMYFGFLEEAKENLYKAASLNPNNLDIRNSYELCVNKLKEARKKDKLTFGGMFDKGPLYEEKKNSAN | binds
60S acidic ribosomal protein P2 (protein, UniProt O00806 1-112) MAMKYVAAYLMCVLGGNENPSTKEVKNVLGAVNADVEDEVLNNFIDSLKGKSCHELITDGLKKLQNIGGGVAAAPAGAAAVETAEAKKEDKKEEKKEEEEEEEDDLGFSLFG | binds
Fructose-bisphosphate aldolase (protein, UniProt Q7KQL9 1-369) MAHCTEYMNAPKKLPADVAEELATTAQKLVQAGKGILAADESTQTIKKRFDNIKLENTIENRASYRDLLFGTKGLGKFISGAILFEETLFQKNEAGVPMVNLLHNENIIPGIKVDKGLVNIPCTDEEKSTQGLDGLAERCKEYYKAGARFAKWRTVLVIDTAKGKPTDLSIHETAWGLARYASICQQNRLVPIVEPEILADGPHSIEVCAVVTQKVLSCVFKALQENGVLLEGALLKPNMVTAGYECTAKTTTQDVGFLTVRTLRRTVPPALPGVVFLSGGQSEEEASVNLNSINALGPHPWALTFSYGRALQASVLNTWQGKKENVAKAREVLLQRAEANSLATYGKYKGGAGGENAGASLYEKKYVY | binds
Small GTP-binding protein Sar1 (protein, UniProt Q8I1S0 1-192) MFIINWFRDILAHLGLSQKSARILFLGLDNAGKTTLLHMLKDDRVAQHVPTLHPHSEELVVGKIRFKTFDLGGHETARRIWRDYFAAVDAVVFMIDTTDRSRFDEAREELRHLLETEELSNVPFVVLGNKIDKPDAASEDELRQHLNLFSNITVHNNMKGGSGVRPVELFMCSVIRRMGYAAAFKWISQFLT | binds
falcilysin (protein, UniProt Q76NL8 1-1193) MNLTKLMKVIGYINIITNCVQSFTNRADKKRYNVFAKSFINTINTNLYTFKAVMSKTPEWIHEKSPKHNSYDIIEKRYNEEFKMTYTVYQHKKAKTQVISLGTNDPLDVEQAFAFYVKTLTHSGKGIPHILEHSVLSGSKNYNYKNSIGLLEKGTLHTHLNAYTFNDRTVYMAGSMNNKDFFNIMGVYMDSVFQPNVLENKYIFETEGWTYEVEKLKEDEKGKAEIPQMKDYKVSFNGIVYNEMKGALSSPLEDLYHEEMKYMFPDNVHSNNSGGDPKEITNLTYEEFKEFYYKNYNPKKVKVFFFSKNNPTELLNFVDQYLGQLDYSKYRDDAVESVEYQTYKKGPFYIKKKYGDHSEEKENLVSVAWLLNPKVDKTNNHNNNHSNNQSSENNGYSNGSHSSDLSLENPTDYFVLLIINNLLIHTPESVLYKALTDCGLGNNVIDRGLNDSLVQYIFSIGLKGIKRNNEKIKNFDKVHYEVEDVIMNALKKVVKEGFNKSAVEASINNIEFILKEANLKTSKSIDFVFEMTSKLNYNRDPLLIFEFEKYLNIVKNKIKNEPMYLEKFVEKHFINNAHRSVILLEGDENYAQEQENLEKQELKKRIENFNEQEKEQVIKNFEELSKYKNAEESPEHLNKFPIISISDLNKKTLEVPVNVYFTNINENNNIMETYNKLKTNEHMLKDNMDVFLKKYVLKNDKHNTNNNNNNNNNMDYSFTETKYEGNVPILVYEMPTTGIVYLQFVFSLDHLTVDELAYLNLFKTLILENKTNKRSSEDFVILREKNIGSMSANVALYSKDDHLNVTDKYNAQALFNLEMHVLSHKCNDALNIALEAVKESDFSNKKKVIDILKRKINGMKTTFSEKGYAILMKYVKAHLNSKHYAHNIIYGYENYLKLQEQLELAENDFKTLENILVRIRNKIFNKKNLMVSVTSDYGALKHLFVNSNESLKNLVSYFEENDKYINDMQNKVNDPTVMGWNEEIKSKKLFDEEKVKKEFFVLPTFVNSVSMSGILFKPGEYLDPSFTVIVAALKNSYLWDTVRGLNGAYGVFADIEYDGSVVFLSARDPNLEKTLATFRESAKGLRKMADTMTENDLLRYIINTIGTIDKPRRGIELSKLSFLRLISNESEQDRVEFRKRIMNTKKEDFYKFADLLESKVNEFEKNIVIITTKEKANEYIANVDGEFKKVLIE | binds
eIF2α (protein, UniProt Q8IBH7 1-329) MTEMRVKADLGDCRFYKKKFPEVDDLIMVKVNRIEDMGAYVSILEYNDMEGMILMSELSKRRFRSVNKLIRVGRHEVVLVLRVDSQKGYIDLSKRRVSPKDIIKCEEKFSKSKKVHQTVRHVAKEHGITVEELNEKAIWPLYERYGHALDALKEATMNPENVFKGLDISEEIKNSLLKDIKLRLTPQALKLRGRIDVWCFGYEGIDAVKEALKKGKEISNDKVSINIKLIAPPQYVIVTSCHDKDLGMAKIQEAMKVISDKIKEYKGGDFKQQGEILVIGGDEEKRLEELLDKHDGISSDDDDYNTSDEDDENSSEEDENTSEDEEEED | binds
Rab6 (protein, UniProt Q26000 1-207) MDEFQNSGLNKYKLVFLGEQAVGKTSIITRFMYDTFDNNYQSTIGIDFLSKTLYLDEGPVRLQLWDTAGQERFRSLIPSYIRDSAAAIVVYDITNRQSFENTTKWIQDILNERGKDVIIALVGNKTDLGDLRKVTYEEGMQKAQEYNTMFHETSAKAGHNIKVLFKKTASKLPNLDNTNNNEANVVDIQLTNNSNKNDKNMLSKCLC | binds
Proliferating cell nuclear antigen 1 (protein, UniProt P61074 1-274) MLEAKLNNASILKKLFECIKDLVNDANVDADESGLKLQALDGNHVSLVSLHLLDSGFSHYRCDRERVLGVNIASLNKVFKLCGANESVVISSKDDEDNLNFVFENNKEDKVTNFSLKLMSIELDSLNIPDCEEGFDAEVELSSKELTNIFRNLSEFSDTVFIEIDSNCIKFTTKGIVGDAEVALKPRDSTSEDDIGVTIKSKKKIKQSFAIKYLNLFSKSNILADVVVLGLSDSRPIEFKYEIKDTSPDSDTLKIGFVKFFLAPKMDDDMDNKD | binds
Rab11B (protein, UniProt Q5F2Q2 1-229) MSNEEYDHLYKIILVGDATVGKTHLLSRYIRGSLPSVAKATIGVEFATRTIPLAVGGTVKAQIWDTAGQERYRSITSAHYRRSAGAILVYDITKKKTFLSISKWLEEIRQNADKDIVIMLVGNKVDLTEEDETKRKVTYEQGANFARENNLFFAEASAVSKLNVKHIFENLLQEIYNNRLKNNNRSFSNRSVATCESAIQLTKARSVIKLNEVYDNQSEDNNMNKVKCC | binds
